# Some of the results follow. This is a noisy data set.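 Tm was set to 64 °C where no melting was found, and many curves are irregular.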
# Protein sequences, listed by entry. Tags and fused reporters are not part of them. Lines headed by an entry give the natural chain unless they say otherwise; changes in a name come on top.
# UniProt P61006: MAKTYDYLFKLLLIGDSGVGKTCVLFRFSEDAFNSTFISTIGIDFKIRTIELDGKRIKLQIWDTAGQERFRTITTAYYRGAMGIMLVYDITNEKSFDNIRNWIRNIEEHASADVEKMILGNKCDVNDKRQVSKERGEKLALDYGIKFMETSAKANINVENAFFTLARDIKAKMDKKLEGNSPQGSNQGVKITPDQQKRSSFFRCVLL
# UniProt P62136, whole entry: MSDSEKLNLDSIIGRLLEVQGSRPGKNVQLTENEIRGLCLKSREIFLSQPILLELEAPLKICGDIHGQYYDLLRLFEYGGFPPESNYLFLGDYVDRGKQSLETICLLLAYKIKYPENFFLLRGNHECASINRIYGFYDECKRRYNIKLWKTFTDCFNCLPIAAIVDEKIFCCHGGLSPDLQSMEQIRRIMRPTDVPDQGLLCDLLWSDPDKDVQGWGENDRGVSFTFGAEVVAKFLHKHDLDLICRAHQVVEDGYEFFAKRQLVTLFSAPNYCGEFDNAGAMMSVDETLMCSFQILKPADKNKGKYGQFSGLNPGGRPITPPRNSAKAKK
# UniProt P60903, whole entry: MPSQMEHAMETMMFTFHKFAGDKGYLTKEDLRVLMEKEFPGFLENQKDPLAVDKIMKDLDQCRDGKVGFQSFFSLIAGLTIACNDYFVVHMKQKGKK
# UniProt P60983, whole entry: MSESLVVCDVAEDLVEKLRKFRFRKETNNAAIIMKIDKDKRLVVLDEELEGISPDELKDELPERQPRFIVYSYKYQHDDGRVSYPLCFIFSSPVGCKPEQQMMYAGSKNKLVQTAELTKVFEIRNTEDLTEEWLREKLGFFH
# UniProt P61923: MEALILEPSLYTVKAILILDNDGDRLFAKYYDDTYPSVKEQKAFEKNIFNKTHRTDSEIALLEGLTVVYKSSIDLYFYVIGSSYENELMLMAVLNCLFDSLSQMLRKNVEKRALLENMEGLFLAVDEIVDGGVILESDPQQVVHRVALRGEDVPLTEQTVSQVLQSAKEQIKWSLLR
# UniProt P54646: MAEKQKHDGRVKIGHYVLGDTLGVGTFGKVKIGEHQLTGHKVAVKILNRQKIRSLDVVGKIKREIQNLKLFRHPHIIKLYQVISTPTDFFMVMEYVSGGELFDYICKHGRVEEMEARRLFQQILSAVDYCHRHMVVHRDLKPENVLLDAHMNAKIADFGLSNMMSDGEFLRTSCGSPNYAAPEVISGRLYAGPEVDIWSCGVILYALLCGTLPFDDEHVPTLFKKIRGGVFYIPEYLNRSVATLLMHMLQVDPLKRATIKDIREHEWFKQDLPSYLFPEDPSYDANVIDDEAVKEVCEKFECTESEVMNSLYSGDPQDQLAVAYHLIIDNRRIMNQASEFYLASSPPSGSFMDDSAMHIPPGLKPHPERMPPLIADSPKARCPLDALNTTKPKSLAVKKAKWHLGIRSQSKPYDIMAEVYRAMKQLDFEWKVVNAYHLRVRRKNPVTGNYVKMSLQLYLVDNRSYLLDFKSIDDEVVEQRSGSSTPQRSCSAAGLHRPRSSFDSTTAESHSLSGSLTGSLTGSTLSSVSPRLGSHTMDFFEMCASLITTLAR
# UniProt P55010, whole entry: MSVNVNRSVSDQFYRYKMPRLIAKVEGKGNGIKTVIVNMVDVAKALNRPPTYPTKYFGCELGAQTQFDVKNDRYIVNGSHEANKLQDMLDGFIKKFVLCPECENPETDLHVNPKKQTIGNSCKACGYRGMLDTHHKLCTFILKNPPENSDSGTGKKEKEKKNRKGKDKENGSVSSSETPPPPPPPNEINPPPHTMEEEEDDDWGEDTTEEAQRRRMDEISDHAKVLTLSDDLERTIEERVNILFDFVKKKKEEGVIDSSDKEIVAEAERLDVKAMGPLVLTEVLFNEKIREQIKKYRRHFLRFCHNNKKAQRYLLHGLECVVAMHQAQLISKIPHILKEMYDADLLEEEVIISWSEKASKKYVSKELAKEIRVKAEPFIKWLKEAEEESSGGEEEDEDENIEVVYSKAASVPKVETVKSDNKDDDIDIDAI
# UniProt P61225: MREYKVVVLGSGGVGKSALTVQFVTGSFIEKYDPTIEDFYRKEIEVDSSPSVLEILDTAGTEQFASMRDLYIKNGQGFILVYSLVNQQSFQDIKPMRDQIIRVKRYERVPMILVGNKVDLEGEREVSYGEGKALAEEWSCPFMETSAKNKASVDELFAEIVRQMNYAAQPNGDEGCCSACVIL
# UniProt P57721, whole entry: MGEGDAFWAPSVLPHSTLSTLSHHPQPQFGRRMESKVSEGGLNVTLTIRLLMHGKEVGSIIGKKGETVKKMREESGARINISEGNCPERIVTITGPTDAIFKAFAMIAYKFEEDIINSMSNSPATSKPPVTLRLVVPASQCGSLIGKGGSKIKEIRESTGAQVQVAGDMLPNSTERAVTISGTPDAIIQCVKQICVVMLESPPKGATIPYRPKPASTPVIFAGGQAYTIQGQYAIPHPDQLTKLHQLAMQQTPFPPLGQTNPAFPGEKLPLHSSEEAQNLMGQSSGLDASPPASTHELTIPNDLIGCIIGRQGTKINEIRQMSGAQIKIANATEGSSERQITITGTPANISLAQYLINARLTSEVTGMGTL
# UniProt P57678: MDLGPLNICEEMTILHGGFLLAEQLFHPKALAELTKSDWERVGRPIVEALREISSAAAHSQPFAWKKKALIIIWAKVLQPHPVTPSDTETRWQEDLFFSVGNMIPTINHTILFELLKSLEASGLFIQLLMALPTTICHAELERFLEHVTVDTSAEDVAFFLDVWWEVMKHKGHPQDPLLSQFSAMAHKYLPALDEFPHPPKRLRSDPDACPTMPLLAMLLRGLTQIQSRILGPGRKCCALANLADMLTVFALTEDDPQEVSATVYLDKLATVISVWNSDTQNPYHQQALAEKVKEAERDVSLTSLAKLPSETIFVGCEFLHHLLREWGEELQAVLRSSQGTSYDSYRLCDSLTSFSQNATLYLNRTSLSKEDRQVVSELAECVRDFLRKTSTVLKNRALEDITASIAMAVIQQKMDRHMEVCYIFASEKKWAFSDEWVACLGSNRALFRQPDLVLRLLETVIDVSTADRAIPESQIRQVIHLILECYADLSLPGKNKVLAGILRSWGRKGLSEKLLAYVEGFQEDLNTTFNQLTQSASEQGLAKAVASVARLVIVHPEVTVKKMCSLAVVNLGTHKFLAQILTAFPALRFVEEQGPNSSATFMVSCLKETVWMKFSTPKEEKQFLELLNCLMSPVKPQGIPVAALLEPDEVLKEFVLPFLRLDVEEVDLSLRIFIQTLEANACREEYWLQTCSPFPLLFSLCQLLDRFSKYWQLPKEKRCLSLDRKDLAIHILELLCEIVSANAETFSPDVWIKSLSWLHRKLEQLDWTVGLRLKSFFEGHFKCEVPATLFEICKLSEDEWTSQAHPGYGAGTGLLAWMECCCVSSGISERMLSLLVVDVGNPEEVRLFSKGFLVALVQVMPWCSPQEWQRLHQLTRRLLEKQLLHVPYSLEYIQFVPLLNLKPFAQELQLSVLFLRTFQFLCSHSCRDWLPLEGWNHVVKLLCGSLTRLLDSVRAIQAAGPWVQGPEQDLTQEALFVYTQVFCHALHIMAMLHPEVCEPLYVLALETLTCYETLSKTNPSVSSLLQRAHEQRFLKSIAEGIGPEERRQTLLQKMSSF
# UniProt P53367: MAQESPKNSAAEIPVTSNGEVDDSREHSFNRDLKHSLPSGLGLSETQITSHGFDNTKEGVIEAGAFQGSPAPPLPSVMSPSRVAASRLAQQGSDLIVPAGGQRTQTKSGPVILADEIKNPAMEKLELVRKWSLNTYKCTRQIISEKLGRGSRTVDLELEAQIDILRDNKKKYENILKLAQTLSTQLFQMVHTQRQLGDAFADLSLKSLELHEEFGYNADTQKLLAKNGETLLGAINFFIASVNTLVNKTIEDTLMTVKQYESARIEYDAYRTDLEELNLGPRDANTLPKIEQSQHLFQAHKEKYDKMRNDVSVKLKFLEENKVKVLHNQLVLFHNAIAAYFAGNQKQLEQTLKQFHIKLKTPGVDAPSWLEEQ
# UniProt P54920: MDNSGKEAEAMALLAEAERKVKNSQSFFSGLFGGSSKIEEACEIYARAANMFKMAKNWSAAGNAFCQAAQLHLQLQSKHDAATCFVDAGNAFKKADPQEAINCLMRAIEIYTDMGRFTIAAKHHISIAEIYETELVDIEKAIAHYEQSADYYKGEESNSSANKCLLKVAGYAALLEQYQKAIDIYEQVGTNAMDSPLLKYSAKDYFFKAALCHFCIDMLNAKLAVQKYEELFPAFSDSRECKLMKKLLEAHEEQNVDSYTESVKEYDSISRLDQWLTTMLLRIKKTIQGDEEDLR
# UniProt P52848: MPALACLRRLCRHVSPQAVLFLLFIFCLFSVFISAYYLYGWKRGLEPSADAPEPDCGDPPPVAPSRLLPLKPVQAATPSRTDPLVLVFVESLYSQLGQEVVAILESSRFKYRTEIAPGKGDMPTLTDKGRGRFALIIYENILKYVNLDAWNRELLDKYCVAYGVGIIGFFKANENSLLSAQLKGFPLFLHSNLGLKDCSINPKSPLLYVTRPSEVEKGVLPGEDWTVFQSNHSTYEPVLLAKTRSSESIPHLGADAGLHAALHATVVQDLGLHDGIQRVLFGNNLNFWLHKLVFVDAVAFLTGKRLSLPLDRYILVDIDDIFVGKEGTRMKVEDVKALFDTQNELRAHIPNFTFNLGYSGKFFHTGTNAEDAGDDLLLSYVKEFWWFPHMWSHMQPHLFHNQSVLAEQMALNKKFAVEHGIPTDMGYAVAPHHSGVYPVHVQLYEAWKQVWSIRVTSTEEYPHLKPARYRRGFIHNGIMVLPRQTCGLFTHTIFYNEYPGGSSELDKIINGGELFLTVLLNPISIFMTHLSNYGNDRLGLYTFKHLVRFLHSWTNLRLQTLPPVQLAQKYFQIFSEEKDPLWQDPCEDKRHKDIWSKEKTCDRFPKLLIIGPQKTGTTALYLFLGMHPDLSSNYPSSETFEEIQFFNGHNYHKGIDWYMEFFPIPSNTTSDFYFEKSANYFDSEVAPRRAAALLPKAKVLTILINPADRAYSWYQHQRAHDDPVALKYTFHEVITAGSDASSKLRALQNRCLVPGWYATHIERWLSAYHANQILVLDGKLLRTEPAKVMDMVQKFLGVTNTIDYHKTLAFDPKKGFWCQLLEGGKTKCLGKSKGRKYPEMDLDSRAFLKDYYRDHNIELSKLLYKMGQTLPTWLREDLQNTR
# UniProt P57772: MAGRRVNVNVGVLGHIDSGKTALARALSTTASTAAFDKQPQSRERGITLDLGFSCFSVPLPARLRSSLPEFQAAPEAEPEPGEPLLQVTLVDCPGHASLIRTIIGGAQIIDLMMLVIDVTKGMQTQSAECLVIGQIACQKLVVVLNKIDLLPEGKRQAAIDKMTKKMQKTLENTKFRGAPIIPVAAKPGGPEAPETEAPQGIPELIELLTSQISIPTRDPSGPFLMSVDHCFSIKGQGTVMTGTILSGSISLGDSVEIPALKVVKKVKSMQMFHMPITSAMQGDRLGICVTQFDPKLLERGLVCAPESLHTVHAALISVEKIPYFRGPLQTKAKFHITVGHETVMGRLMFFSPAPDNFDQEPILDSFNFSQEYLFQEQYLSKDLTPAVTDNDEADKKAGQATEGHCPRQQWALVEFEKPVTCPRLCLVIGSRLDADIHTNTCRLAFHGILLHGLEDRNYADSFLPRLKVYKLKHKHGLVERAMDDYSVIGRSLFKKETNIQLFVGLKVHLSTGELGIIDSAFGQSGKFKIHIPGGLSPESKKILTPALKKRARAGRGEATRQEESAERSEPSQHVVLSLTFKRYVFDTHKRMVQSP
# UniProt P56962: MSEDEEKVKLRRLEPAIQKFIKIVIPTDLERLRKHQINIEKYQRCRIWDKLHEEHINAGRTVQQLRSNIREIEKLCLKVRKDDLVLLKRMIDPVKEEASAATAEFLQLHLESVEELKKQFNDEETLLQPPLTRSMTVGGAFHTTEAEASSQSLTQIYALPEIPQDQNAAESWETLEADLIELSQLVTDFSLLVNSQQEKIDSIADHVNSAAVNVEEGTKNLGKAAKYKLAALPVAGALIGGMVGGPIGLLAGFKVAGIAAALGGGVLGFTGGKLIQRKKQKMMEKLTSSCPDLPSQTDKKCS
# UniProt P52294, whole entry: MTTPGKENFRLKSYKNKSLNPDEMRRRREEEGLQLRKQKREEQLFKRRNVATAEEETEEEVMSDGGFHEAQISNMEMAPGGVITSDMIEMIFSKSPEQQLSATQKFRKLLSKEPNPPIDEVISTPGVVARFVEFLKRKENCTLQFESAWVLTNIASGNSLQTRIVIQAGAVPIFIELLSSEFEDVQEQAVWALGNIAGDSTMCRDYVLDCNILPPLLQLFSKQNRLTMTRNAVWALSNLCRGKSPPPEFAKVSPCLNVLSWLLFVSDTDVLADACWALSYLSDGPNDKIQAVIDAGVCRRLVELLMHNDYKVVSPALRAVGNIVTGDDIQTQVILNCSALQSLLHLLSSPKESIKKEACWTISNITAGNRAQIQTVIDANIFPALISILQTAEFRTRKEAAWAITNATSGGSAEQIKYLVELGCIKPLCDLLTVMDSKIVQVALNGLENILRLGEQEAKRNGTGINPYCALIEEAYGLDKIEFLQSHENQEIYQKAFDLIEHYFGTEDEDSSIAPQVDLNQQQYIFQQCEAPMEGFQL
# Compound: CCc1cnccc1C(=O)Nc1cc2c(cc1F)NC(=O)CC2
# Test: melting temperature shift (DMSO Tm minus MBE1-treated Tm) in cellular thermal proteome profiling; higher = less thermal stabilization by MBE1 (negative = stabilized by MBE1)
# Details: A375; MBE1 concentration: 100 nM
row,Target,melting temperature shift [°C]
1,RAB8A (UniProt P61006),-1.46
2,UniProt P52790,2.02
3,PPP1CA (UniProt P62136),-0.409
4,UniProt P55199,-0.243
5,S100A10 (UniProt P60903),-0.778
6,GMFB (UniProt P60983),-2.63
7,SEC13 (UniProt P55735),0.855
8,COPZ1 (UniProt P61923),-1.6
9,EIF4A1 (UniProt P60842),0.415
10,UniProt P68032,0.319
11,RPS6 (UniProt P62753),-0.989
12,RPS15A (UniProt P62244),-0.763
13,AK2 (UniProt P54819),-2.35
14,RPL7A (UniProt P62424),-1.13
15,PRKAA2 (UniProt P54646),-0.104
16,UniProt P54253,1.75
17,EIF5 (UniProt P55010),-0.476

# Another view of some results above:
row | Target | melting temperature shift [°C]
2 | UniProt P52790 | 2.02
3 | PPP1CA (UniProt P62136) | -0.409
5 | S100A10 (UniProt P60903) | -0.778
6 | GMFB (UniProt P60983) | -2.63
8 | COPZ1 (UniProt P61923) | -1.6
9 | EIF4A1 (UniProt P60842) | 0.415
10 | UniProt P68032 | 0.319
11 | RPS6 (UniProt P62753) | -0.989
14 | RPL7A (UniProt P62424) | -1.13
17 | EIF5 (UniProt P55010) | -0.476

# (further entries)

row,Target,melting temperature shift [°C]
1,RPL31 (UniProt P62899),-1.41
2,RAP2B (UniProt P61225),-1.58
3,UniProt P57721,-0.134
4,PMS2 (UniProt P54278),-0.513
5,UniProt P62491,-1.84
6,GEMIN4 (UniProt P57678),-1.26
7,ARFIP1 (UniProt P53367),0.122
8,NAPA (UniProt P54920),-0.583
9,VCP (UniProt P55072),-1.28
10,KPNA2 (UniProt P52292),-0.448
11,UniProt P52848,-1.48
12,POLR2G (UniProt P62487),-1.45
13,POLR2H (UniProt P52434),0.525
14,EEFSEC (UniProt P57772),0.409
15,UniProt P56962,0.562
16,KPNA1 (UniProt P52294),-1.36

# — the supplement of paper PMC12595434, “Development of retinoid nuclear receptor pathway antagonists through targeting aldehyde dehydrogenase 1A3” (iScience, 2025)
